From patent US20040241092A1, “Method for determining alleviation of pain in an animal” (priority 2003, published 2004)

Assays:
[1] = tested on: (IL-6 plus IL-6sR)-induced arthritic pain in rat; test: IL6 Rat: dose response alleviation of (IL-6 plus IL-6sR)-induced arthritic pain (Method Example 1); assay type: in vivo; settings: oral dose of 10 mg/kg or greater (1, 3, 10, 30 mg/kg tested) 1 hour before 100 ng hrIL-6 + 300 ng hrIL-6sR; measured 1 hour post injection
Description: (§1) It should be appreciated that in all of the below examples, unless indicated otherwise, male Wistar rats (175-200 g) were housed in solid bottom isolator cages, 2-4 rats per cage, with corncob bedding on a 12 hour:12 hour light:dark cycle. Animals were fed standard rat chow with water available ad libitum.
(§2) It should be appreciated that in all of the below examples, hind paw weight bearing differentials between the paw of the limb having the control joint (in animals administered test compound vehicle only) and the paw of the limb having the contralateral test joint (in control or inducement animals administered test compound vehicle only and in treatment animals administered test compound dissolved in test compound vehicle) were determined using an incapacitance tester, model 2KG (Linton Instrumentation, Norfolk, United Kingdom). […] Each data point is the mean of three readings of 5 seconds duration. The hind paw weight bearing differentials were expressed in grams and calculated as the [sum of (the weight in grams placed on the control limb minus the weight in grams placed on the contralateral test limb for each animal in the inducement or treatment animal group)] divided by the number of animals in the inducement or treatment animal group. […]

[2] = tested on: (IL-6 plus IL-6sR)-induced arthritic pain in rat; test: IL6 Rat: time course of alleviation of (IL-6 plus IL-6sR)-induced arthritic pain (Method Example 2); assay type: in vivo; settings: 10 mg/kg oral 1 hour before 100 ng hrIL-6 + 300 ng hrIL-6sR
Description: as §1, §2

COc1ccc2cc([C@H](C)C(=O)O)ccc2c1 [naproxen]
percent inhibition of a change in hind paw weight distribution, compared to test compound vehicle alone [1]: inhibit pain in a statistically significant manner | change in hind paw weight distribution (pain) compared to test compound vehicle alone ([2]; Time 1 and 3 hours post injection): reduced pain in a statistically significant manner | change in hind paw weight distribution (pain) compared to test compound vehicle alone ([2]; Time 6 hours post injection): reduced pain in a statistically significant manner
